PubChem BioAssay AID540275 (National Center for Advancing Translational Sciences (NCATS), 2011)
Out of some 320,000 compounds screened, about 620 (0.19%) were called active. The shares of active, inactive and inconclusive entries below differ from those in the screen. No stated cut-off is given here; in the data, active means activation above about 80%; inconclusive means between about 30% and that limit; inactive means weaker than that.

Sequences of proteins named here, by UniProt entry; tags and fusion partners are left off.
UniProt Q8NER1, whole entry, looked up: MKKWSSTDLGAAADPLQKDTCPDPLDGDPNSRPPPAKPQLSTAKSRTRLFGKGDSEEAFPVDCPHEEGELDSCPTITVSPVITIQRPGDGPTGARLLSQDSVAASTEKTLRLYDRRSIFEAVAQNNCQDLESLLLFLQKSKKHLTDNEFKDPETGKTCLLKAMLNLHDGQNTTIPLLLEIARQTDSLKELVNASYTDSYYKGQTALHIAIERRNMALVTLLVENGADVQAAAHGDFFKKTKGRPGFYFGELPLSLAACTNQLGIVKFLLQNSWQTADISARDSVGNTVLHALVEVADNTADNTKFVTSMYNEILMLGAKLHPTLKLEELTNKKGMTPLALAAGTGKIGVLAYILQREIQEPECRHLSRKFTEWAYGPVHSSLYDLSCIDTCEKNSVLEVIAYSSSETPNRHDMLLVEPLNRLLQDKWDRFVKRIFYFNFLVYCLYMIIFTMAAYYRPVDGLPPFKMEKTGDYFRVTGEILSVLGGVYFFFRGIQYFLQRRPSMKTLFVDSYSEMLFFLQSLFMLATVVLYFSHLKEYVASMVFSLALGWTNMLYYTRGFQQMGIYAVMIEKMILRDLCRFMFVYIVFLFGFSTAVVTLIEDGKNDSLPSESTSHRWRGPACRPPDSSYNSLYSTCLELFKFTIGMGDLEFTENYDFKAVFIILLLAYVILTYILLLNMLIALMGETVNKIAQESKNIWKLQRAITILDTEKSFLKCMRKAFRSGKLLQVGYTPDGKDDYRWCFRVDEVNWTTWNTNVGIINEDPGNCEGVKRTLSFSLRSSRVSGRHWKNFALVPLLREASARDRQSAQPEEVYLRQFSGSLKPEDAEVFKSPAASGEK

Each compound was assayed against Transient receptor potential cation channel subfamily V member 1 (Homo sapiens) (UniProt Q8NER1) (assay: HTS Assay for Compounds that Act as Agonists of the Vanilloid Receptor 1). Settings: TRPV1-expressing cells, Fluo-8 calcium influx, agonist mode; at 8.33 µM, hits give high values.
Procedure, shortened: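 TRPV1-expressing cells were cultured overnight at 35.5C and loaded with Fluo-8 calcium dye for 40 to 90 min at room temperature. After a 10 s baseline, compound was added and calcium influx was read kinetically for 3 min (ex 480/em 520 nm).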
Further: 0% is about no effect.

Structure (SMILES)	activation
Brc1ccc(-n2cnc(-c3ccccc3)c2)cc1	inconclusive: 40.5%
COc1ccc(C(=O)Nc2cc(C)ccc2NC(=O)COc2ccccc2)cc1	inconclusive: 44.9%
O=C(CCc1ccncc1)N1CCCC(Nc2ccc(F)c(F)c2)C1 (stereo unspecified)	inconclusive: 63.9%
CC(C)(C)C(=O)OCc1nc(-c2ccc(F)cc2)cs1	inconclusive: 35.3%
O=C(CNC(=O)c1ccccc1)NC1(C(=O)NC2CCCC2)CCCCC1	inactive: -0.796%
C/C=C/c1ccc(OCCCCN2CCN(CC)CC2)c(OC)c1	inactive: 2.59%
C=C(C)CSc1nnc([C@@H](NC(=O)OC(C)(C)C)C(C)CC)o1 (stereo partly specified)	inconclusive: 48.8%
COc1cc2c(cc1NC(=O)CSc1nc3cc(Cl)ccc3s1)oc1ccccc12	inactive: -1.87%
C/C=C/c1ccc(OCC(O)CNCC(c2ccc(OC)cc2)N(C)C)c(OC)c1 (stereo unspecified)	inactive: 3.23%
COc1ccc(C/C(C)=N/NC(=S)Nc2ccc(Cl)cc2)cc1	inactive: 2.5%
Cc1ccc(SCC(=O)OC(C)C(=O)NC2(C#N)CCCCC2)cc1 (stereo unspecified)	inconclusive: 39.1%
O=C(Nc1ccccc1)Nc1cccc2cccnc12	inconclusive: 42.8%
COc1ccccc1CC(=O)NC1CC(C)(C)NC(C)(C)C1	inactive: -9.65%
O=C(CSc1ccc(C(F)(F)F)cc1[N+](=O)[O-])Nc1ccccc1	inconclusive: 47.9%
Cc1cc(NC(=O)CSc2nnc(-c3ccccc3Cl)o2)no1	inactive: 0.684%
COc1ccc(-c2cc(C)no2)cc1S(=O)(=O)N(C)c1ccc(C)c(C)c1	inconclusive: 46.8%
COCCNC(=S)N1CCN(c2nc(-c3ccccc3)cs2)CC1	inconclusive: 33.9%
CSc1ccc(C(=O)N2CCc3ccc(NC(=O)c4ccccn4)cc3C2)cc1	inconclusive: 36.7%
Cc1ccc2cccc(OCC(=O)Nc3cccc(S(=O)(=O)N4CCCC4)c3)c2n1	inactive: 5.52%
O=C(c1ccc2ccccc2c1)C1CCCN(S(=O)(=O)c2cccnc2)C1 (stereo unspecified)	inconclusive: 34.5%
CCCCC(=O)OCC(=O)c1[nH]c(C)c(C(C)=O)c1C	inactive: 27.1%
COc1ccccc1CCNC(=O)C(=O)c1cn(CC(=O)N2CCOCC2)c2ccccc12	inactive: 5.35%
Cc1nc2ccccc2cc1C(=O)N/N=C/c1cccs1	inactive: 8.33%

Structure (SMILES)	activation
CCCCNC(=O)c1ccccc1NC(=O)c1ccc2c(c1)OCO2	inconclusive: 30.6%
COc1ccc(C(=O)Oc2ccc(/C=N/NC(=O)c3ccccc3OC)cc2[N+](=O)[O-])cc1	inactive: -0.38%
CCCCOc1ccc(C(=O)Nc2cccc(-n3cnnn3)c2)cc1OC	active: 88.5%
Brc1ccc2nc3c(n2c1)CCCC3	inconclusive: 39.7%
COC(=O)CCCC1=CC2=CC(=O)C(C)(OC(=O)c3cccs3)C(=O)C2=CN1c1ccc(OC)cc1 (stereo unspecified)	inactive: -2.09%
CCN1CCc2c(sc(NC(=O)Nc3ccc(Cl)c(Cl)c3)c2C(N)=O)C1	active: 81.8%
CCN(CCCNC(=O)c1cn(CC)c2ccc(S(=O)(=O)N(C)C)cc2c1=O)c1cccc(C)c1	active: 109%
CC1CCN(S(=O)(=O)c2cnc(Cl)c(Br)c2)CC1	inactive: 23.3%
COc1cccc(C(C(=O)NC2CCCCC2)N(C(=O)c2cccs2)c2ccc3c(c2)OCO3)c1 (stereo unspecified)	inconclusive: 59.3%
C/C=C(/C)C(=O)O[C@@H]1[C@H](OC(=O)C=C(C)C)c2c(ccc3ccc(=O)oc23)OC1(C)C	inconclusive: 54.3%
COc1cccc(CNn2cnnc2)c1OCc1ccc(F)cc1	inactive: 0.61%
Cc1ccccc1CNC(=O)Nc1ccc(Cl)cc1	inconclusive: 52.8%
Cc1ccc2nc(SCC(=O)NC3CCCc4ccccc43)[nH]c2c1 (stereo unspecified)	inconclusive: 40.5%
COc1ccc([C@H]2CC(=O)C=C(c3ccc(OC(F)(F)F)cc3)C2)cc1	inactive: 10.2%
O=C1CC(c2ccc(F)cc2)Cc2nc(N3CCOCC3)ncc21 (stereo unspecified)	inconclusive: 61.6%
Cc1ccc(N2C(N)=NC(N)=NC23CCCC3)c(C)c1	inactive: 3.07%
Cc1cc(C(F)F)n2nc(C(=O)Nc3sc4c(c3C(N)=O)CCC4)nc2n1	inactive: -4.57%
CCC(CC)C(=O)Nc1cc(C(=O)OC)ccc1C(=O)OC	inconclusive: 39.8%
O=C(CN1CCc2ccccc21)NC(=O)NCc1ccccc1	inconclusive: 36.8%
Cc1ccc2nc(-c3ccc(NC(=O)C4CCCO4)cc3)[nH]c2c1 (stereo unspecified)	inactive: -2.91%
Cc1cc(NC(=O)c2cc(-c3ccccn3)nc3c(Cl)cccc23)no1	inconclusive: 41.7%
O=C(COc1ccccc1)N1CCN(S(=O)(=O)Cc2ccccc2)CC1	inactive: 5.98%
S=C(NCc1ccccc1)N1CCN(c2ccccc2)CC1	inconclusive: 55.9%

Five records drawn at random from those above, as already listed:
Structure (SMILES)	activation
Cc1ccc(N2C(N)=NC(N)=NC23CCCC3)c(C)c1	inactive: 3.07%
Cc1ccc2nc(-c3ccc(NC(=O)C4CCCO4)cc3)[nH]c2c1 (stereo unspecified)	inactive: -2.91%
Cc1ccc2nc(SCC(=O)NC3CCCc4ccccc43)[nH]c2c1 (stereo unspecified)	inconclusive: 40.5%
O=C(CN1CCc2ccccc21)NC(=O)NCc1ccccc1	inconclusive: 36.8%
O=C(COc1ccccc1)N1CCN(S(=O)(=O)Cc2ccccc2)CC1	inactive: 5.98%

The results go on:

Structure (SMILES)	activation
Brc1ccc(-c2ccc(CNCc3ccccn3)o2)cc1	inconclusive: 34.6%
CC(C)CNc1ncnc2c1cnn2Cc1ccc(Cl)cc1	inconclusive: 38.4%
O=C(N[C@@H]1CCC(=O)N(CC[C@H](Sc2ccccc2)c2ccccc2)CC1)OCc1ccccc1	inactive: 5.78%
CC(=O)c1csc(-c2ccccc2)n1	inactive: 11.4%
COC(=O)c1cccc(NC(=O)c2ccc3c(c2)C(=O)N(C(C)(C)C)C3=O)c1	active: 107%
CN(C)S(=O)(=O)c1ccc(NC(=S)NC(=O)C2CCC2)cc1	inactive: 2.23%
CCOC(=O)c1ccc(NC(=O)c2ccccc2C)cc1	inconclusive: 60.1%
CCOc1ccc(/C=N/Nc2cc(C)nc(N3CCOCC3)n2)cc1	inconclusive: 38.6%
COc1ccc(OC)c(NC(=O)Nc2cccnc2)c1	inconclusive: 32.8%
Cc1ccc(SCCC(=O)NCCSCc2ccco2)cc1	inconclusive: 32.6%
CC1CN(C(=O)CCc2cc(C(C)(C)C)c(O)c(C(C)(C)C)c2)CC(C)O1 (stereo unspecified)	inconclusive: 57.7%
Cc1ccc(C(=O)OCn2ncc(Cl)c(Cl)c2=O)cc1	inactive: -3.46%
CC(Sc1nnc(-c2ccc(OC(F)F)cc2)o1)C(=O)NCC1CCCO1 (stereo unspecified)	inactive: 1.05%
COc1cc(OC)c(NC(=O)CN(C)S(=O)(=O)c2ccc(-c3ccc(=O)[nH]n3)s2)cc1Cl	inconclusive: 42.5%
Cc1ccc(S(=O)(=O)N(C)Cc2ccccc2)cc1C(=O)N1CCCCC1	inconclusive: 30.5%
CCC1(C(=O)c2ccc(Cl)cc2)C2c3ccccc3OC(=O)C21C(=O)Nc1ccccc1 (stereo unspecified)	inconclusive: 45.2%
Cc1cc2oc(C(=O)Nc3cccnc3)c(C)c2cc1C	active: 85%
CCN(CC)S(=O)(=O)c1ccc(/C=C/C(=O)Nc2ccc(F)cc2F)cc1	inconclusive: 41%
CC(C)NC(=O)C12CC3CC(C1)CC(C(=O)NC(C)C)(C3)C2	inactive: -2.15%
O=S(=O)(c1ccc(F)cc1)N1CCn2c(nc3ccccc32)C1	inconclusive: 32.9%
CC(C)n1c(N2CCN(C(=O)N3CCCCC3)CC2)nc2ccccc21	inconclusive: 37.8%
CCC(C)(C)NC(=S)Nc1ccc(-c2nc3ccc(C)cc3s2)cc1	inactive: -9.92%
CC(C)(C)c1ccc(C(=O)NCC(=O)OCc2ccc([N+](=O)[O-])cc2)cc1	inconclusive: 50.1%

Structure (SMILES)	activation
Cc1nn(-c2ccccc2)nc1C(=O)NN	inactive: 6.1%
CC1(c2nnc(Cc3ccccc3)o2)CC(c2ccccc2Br)=NO1 (stereo unspecified)	inconclusive: 41.7%
O=c1c2ccccc2cnn1CCOc1ccccc1	inactive: 23.8%
CCOc1ccc(OCC)c(NC(=O)CN(C)S(=O)(=O)c2ccc3nc(C)sc3c2)c1	inconclusive: 55.9%
CC(=O)c1cccn1S(=O)(=O)c1ccccc1	inactive: -2.61%
COc1ccc(NC(=S)Nn2cnnc2)c(OC)c1	inactive: -1.98%
CCOC(=O)c1ccc(NC(=O)N2CCN(c3ccccn3)CC2)cc1	inactive: -0.755%
CS(=O)(=O)N1CCc2cc(C(=O)Nc3ccc(COCC(F)(F)F)cc3)ccc21	inconclusive: 52.6%
COc1ccc(OC)c(C2CC(=O)c3c([nH]c(C(=O)OCC4CCCO4)c3C)C2)c1 (stereo unspecified)	inactive: 10.1%
O=c1c2ccccc2nc2n1CCc1c-2[nH]c2ccccc12	inconclusive: 46.7%
Cc1ccc(/C=N/c2sc3c(c2C#N)CCC3)o1	inconclusive: 38.7%
O=C(Nc1ccc(S(=O)(=O)N2CCOCC2)cc1)c1ccc(Cl)cc1Cl	inconclusive: 32.8%
O=C(CCc1ccc(S(=O)(=O)N2CCOCC2)cc1)N1CCCC1	inconclusive: 40.9%
COC(=O)c1[nH]c2ccc(Cl)cc2c1NC(=O)CN1CCc2cc(OC)c(OC)cc2C1	inactive: 1.64%
CC(NC(=O)C1=CC=CN2CCS(=O)(=O)N=C12)c1ccc(Cl)cc1Cl (stereo unspecified)	inactive: -2%
COc1ccc(Nc2nc(CN3CCOCC3)nc3sc4c(c23)CCC(C)C4)cc1OC (stereo unspecified)	inconclusive: 48.6%
O=C(CCN1C(=O)S/C(=C\C=C\c2ccccc2)C1=O)Nc1ccc(O)cc1	inconclusive: 50.8%
CC(C)Oc1ccc(C(=O)NC2CCCCC2)cc1	inconclusive: 46.6%
COc1ccc([C@H]2CC(=O)C=C(c3cccc(F)c3OC)C2)cc1	inconclusive: 49.6%
CC(C)(C)NC(=O)CSc1nc(Cc2ccccc2)nc2ccccc12	inconclusive: 34.5%
COc1ccc(-c2cc(C(=O)OCC(=O)NC(C)C)c3ccccc3n2)cc1	inconclusive: 39.2%
CC(C)(C)C(=O)N1CCN(c2nc3ccccc3s2)CC1	inconclusive: 59.6%
